# From the supplement of paper PMC10849652
# Sequences of proteins named here, by UniProt entry; tags and fusion partners are left off. A change or cut given only in a name is not applied to a line headed by its entry.
# UniProt Q6ZRV2: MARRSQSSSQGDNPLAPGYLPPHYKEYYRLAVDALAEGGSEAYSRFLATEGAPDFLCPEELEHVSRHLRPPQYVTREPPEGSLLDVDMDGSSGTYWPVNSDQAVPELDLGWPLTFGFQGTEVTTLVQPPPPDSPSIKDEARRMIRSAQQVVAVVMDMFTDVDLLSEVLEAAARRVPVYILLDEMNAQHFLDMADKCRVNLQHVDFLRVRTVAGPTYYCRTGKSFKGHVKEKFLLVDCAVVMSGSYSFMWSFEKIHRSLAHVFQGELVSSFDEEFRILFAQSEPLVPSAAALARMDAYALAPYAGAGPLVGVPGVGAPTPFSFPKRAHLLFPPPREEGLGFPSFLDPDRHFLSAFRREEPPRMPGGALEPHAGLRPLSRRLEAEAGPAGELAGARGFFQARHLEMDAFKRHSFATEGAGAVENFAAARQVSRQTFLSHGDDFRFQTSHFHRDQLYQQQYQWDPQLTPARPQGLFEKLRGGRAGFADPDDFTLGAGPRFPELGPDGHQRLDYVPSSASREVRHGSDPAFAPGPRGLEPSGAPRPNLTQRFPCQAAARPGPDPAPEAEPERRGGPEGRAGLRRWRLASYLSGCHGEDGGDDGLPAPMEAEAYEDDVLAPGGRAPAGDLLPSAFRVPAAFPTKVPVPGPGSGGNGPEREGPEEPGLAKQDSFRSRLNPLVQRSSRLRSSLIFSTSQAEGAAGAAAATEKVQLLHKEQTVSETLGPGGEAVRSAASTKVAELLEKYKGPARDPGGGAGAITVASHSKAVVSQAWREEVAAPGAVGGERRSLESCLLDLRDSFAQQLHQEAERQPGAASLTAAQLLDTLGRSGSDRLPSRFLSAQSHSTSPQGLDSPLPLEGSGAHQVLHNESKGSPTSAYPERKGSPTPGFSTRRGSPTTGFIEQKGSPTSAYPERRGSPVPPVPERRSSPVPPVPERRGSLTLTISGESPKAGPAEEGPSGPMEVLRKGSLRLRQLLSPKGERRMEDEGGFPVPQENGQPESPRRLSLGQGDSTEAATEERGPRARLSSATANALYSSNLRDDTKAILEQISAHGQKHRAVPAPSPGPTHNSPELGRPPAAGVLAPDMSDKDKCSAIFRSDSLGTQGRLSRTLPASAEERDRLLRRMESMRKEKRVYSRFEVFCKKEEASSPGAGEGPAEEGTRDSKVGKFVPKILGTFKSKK
# UniProt Q96IV6: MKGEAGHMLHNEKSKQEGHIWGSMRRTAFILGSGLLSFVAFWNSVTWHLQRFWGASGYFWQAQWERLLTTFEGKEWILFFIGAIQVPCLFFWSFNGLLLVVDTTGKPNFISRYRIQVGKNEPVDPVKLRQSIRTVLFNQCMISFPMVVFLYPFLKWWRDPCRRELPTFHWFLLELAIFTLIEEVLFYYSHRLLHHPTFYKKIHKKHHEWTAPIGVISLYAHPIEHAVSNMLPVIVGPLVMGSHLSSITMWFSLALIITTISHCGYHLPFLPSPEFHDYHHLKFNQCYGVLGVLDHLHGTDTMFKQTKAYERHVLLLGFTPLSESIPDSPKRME
# UniProt Q13642: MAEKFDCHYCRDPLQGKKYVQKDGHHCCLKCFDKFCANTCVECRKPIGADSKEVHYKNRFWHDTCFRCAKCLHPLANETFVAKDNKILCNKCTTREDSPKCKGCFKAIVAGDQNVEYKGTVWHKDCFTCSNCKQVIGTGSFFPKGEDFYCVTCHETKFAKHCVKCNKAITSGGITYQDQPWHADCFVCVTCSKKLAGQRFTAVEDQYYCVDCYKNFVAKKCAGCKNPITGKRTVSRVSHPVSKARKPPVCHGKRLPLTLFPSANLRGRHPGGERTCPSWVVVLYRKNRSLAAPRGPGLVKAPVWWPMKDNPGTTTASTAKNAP
# UniProt Q86XK2: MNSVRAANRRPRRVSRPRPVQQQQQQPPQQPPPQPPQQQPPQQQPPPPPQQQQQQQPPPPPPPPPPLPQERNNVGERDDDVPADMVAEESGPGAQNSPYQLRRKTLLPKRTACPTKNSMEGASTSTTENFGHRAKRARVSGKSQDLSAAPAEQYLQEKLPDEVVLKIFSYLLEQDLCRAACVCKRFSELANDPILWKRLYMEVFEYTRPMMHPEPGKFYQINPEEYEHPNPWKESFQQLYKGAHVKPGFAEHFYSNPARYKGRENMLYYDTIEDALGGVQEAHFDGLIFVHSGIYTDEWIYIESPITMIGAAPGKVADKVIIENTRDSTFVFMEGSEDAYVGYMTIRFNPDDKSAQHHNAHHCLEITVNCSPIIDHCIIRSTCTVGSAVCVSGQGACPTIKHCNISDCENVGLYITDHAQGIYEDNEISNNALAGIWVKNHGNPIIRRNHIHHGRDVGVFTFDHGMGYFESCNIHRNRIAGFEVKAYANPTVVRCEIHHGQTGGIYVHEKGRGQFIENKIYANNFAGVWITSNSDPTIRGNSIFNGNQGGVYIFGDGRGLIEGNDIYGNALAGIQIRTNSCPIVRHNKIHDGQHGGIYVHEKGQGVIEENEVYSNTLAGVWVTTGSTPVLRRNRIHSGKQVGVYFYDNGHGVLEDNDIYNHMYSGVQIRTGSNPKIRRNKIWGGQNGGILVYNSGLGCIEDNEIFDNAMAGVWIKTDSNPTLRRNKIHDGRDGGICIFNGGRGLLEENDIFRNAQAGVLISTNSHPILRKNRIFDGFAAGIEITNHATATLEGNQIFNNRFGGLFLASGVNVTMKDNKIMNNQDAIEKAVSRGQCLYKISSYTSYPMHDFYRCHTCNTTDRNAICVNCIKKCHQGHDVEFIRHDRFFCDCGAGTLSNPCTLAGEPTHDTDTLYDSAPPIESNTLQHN
# UniProt Q4VC44: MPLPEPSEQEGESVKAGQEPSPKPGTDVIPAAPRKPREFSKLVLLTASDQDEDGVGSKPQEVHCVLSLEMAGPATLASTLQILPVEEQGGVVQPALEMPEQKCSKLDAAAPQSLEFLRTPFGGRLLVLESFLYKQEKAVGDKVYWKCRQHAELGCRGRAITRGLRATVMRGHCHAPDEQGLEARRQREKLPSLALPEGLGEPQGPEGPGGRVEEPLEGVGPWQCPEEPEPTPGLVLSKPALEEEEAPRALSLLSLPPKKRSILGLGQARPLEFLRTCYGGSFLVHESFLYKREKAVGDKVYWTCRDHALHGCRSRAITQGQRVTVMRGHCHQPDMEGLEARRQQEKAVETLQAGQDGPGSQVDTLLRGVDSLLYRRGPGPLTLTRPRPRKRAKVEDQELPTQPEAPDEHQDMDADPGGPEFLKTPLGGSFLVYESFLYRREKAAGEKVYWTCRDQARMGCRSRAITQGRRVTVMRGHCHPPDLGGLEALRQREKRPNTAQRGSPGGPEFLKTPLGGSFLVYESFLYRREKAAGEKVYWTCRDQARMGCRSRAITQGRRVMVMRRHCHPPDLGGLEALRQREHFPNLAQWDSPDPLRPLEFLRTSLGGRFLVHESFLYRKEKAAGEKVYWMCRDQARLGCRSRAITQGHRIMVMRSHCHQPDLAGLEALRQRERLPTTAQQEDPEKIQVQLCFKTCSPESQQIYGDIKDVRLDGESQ
# UniProt Q13045: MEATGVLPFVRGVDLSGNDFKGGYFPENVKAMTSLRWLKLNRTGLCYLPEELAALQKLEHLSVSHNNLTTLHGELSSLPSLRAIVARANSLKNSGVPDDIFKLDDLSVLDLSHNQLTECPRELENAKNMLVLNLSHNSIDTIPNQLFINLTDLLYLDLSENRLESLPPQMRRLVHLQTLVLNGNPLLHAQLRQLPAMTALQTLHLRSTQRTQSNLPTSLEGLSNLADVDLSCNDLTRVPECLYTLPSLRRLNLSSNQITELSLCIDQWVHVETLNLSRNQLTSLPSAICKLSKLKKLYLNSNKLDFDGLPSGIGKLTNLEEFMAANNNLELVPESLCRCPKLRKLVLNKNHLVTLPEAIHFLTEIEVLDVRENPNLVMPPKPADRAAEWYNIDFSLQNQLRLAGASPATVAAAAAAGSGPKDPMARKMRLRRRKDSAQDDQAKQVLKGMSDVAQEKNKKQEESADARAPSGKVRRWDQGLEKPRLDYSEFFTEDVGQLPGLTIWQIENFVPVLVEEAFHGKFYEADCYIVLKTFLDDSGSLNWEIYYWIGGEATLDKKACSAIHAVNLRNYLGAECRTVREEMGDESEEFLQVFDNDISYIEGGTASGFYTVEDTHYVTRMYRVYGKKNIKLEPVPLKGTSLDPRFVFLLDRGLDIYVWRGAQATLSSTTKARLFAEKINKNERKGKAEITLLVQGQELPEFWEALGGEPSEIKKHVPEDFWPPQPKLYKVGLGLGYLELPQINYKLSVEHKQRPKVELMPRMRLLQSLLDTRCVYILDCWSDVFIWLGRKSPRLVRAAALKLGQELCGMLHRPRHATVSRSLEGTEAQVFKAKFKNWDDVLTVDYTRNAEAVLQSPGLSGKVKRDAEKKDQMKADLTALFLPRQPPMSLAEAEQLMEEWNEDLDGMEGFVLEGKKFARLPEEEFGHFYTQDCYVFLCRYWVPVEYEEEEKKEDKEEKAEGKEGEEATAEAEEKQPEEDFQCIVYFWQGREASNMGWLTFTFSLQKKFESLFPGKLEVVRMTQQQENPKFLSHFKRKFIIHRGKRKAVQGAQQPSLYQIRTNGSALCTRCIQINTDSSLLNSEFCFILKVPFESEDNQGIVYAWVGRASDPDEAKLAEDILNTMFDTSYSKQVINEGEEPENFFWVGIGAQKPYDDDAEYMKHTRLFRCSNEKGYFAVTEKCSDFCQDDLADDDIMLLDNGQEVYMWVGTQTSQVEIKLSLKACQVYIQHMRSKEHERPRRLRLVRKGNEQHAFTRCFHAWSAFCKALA
# UniProt Q96SL8: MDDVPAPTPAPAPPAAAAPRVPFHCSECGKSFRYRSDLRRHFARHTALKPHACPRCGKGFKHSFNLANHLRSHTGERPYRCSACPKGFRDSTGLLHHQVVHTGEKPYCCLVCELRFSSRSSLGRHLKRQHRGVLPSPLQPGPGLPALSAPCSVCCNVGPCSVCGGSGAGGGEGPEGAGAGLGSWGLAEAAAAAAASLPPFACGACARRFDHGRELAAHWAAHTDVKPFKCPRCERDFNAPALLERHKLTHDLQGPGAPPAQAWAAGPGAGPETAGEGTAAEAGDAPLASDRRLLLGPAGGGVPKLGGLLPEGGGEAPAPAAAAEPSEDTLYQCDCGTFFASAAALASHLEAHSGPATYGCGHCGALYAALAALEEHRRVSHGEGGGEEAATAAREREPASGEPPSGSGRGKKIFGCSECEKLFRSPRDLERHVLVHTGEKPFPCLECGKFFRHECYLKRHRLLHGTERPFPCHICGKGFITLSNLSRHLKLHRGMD
# UniProt Q8NFZ0: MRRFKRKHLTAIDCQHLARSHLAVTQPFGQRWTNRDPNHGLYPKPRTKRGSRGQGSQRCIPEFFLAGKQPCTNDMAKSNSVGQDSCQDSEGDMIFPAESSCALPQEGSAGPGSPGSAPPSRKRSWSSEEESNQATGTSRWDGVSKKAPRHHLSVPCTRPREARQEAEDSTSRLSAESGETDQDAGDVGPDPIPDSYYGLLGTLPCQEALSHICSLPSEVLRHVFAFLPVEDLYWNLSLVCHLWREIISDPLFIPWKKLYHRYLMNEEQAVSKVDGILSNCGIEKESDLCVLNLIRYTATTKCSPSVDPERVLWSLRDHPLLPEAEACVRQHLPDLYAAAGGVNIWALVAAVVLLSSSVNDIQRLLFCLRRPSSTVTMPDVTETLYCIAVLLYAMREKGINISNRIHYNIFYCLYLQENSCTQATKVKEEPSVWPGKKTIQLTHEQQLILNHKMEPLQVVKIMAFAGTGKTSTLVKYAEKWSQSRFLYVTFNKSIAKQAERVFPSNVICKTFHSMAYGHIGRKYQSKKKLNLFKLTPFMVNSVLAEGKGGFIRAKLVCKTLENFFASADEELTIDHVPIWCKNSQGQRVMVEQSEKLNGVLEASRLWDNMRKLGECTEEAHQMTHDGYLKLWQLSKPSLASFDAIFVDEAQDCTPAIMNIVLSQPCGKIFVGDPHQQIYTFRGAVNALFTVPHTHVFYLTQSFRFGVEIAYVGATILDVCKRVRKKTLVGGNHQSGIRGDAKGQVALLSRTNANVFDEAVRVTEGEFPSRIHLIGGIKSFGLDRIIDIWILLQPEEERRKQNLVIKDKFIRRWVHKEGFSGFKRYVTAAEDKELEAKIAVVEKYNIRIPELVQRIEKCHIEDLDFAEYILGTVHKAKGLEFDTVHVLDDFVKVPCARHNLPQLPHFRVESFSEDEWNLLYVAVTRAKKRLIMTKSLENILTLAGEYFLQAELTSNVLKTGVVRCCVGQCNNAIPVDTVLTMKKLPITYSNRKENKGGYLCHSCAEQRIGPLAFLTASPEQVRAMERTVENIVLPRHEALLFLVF
# The list shows a part of the results.
# Assays:
# Test in all cases: log2 fold change, soluble protein after heating vs DMSO (PISA); higher = thermal stabilisation; K562 lysate, 10 uM; active = over 0.2 and 3.5 SD of the protein, either way, in both replicates (recomputed)
# [1] = compound: CC1=C2C(=CC=C1)N=C(N(C2=O)C3=CC=CC=C3C)CN4C=NC5=C(N=CN=C54)N
# How it was run: (§1)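 A 30 min treatment with 10 μM compound was applied to crude K562 extract at 1 mg/mL protein in PBS pH 7.4 with 1 mM MgCl2. Heating for 3 min spanned 48°C-58°C, after which aliquots were pooled, adjusted to 0.5% NP-40 at 4°C and spun at 21,000xg for 90 min. TMTpro 16plex LC-MS/MS of the supernatant, with channel sums equalised, gave values recorded as log-two fold change in thermal stability against solvent controls, from duplicates.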
# [2] = compound: Cc1sc2c(c1C)C(c1ccc(Cl)cc1)=N[C@@H](CC(=O)OC(C)(C)C)c1nnc(C)n1-2
# How it was run: as §1
# [3] = compound: c1ccc([C@@H]2C[C@H]2NC2CCNCC2)cc1
# How it was run: as §1
# [4] = compound: C1=CC=C(C=C1)[C@H](COC2=CC3=C(C=C2)NC(=O)N3)NC(=O)C4=CC=CN(C4=O)CC5=CC(=C(C=C5)F)F
# How it was run: as §1
# [5] = compound: CC1=C(SC2=C1C(=N[C@H](C3=NN=C(N32)C)CC(=O)N)C4=CC=C(C=C4)Cl)C
# How it was run: as §1
target,measurement,setting,value
FANCA (UniProt O15360),log2 fold change,[1],inactive: 0.115
same,log2 fold change,[2],inactive: -0.035
FAM83H (UniProt Q6ZRV2),log2 fold change,[1],inactive: -0.173
same,log2 fold change,[3],inactive: -0.03
FKRP (UniProt Q9H9S5),log2 fold change,[1],inactive: 0.078
same,log2 fold change,[2],inactive: -0.039
same,log2 fold change,[3],inactive: -0.136
FAXDC2 (UniProt Q96IV6),log2 fold change,[2],inactive: -0.055
same,log2 fold change,[3],inactive: -0.111
FARP2 (UniProt H7C3M7),log2 fold change,[1],inactive: -0.018
same,log2 fold change,[2],inactive: -0.023
same,log2 fold change,[3],inactive: -0.015
FEZ2 (UniProt Q9UHY8),log2 fold change,[3],inactive: -0.046
FAT1 (UniProt Q14517),log2 fold change,[3],inactive: -0.092
FEM1A (UniProt Q9BSK4),log2 fold change,[1],inactive: 0.072
FCHSD2 (UniProt O94868),log2 fold change,[2],inactive: 0.098
FLNA (UniProt H0Y5C6),log2 fold change,[1],inactive: 0.08
same,log2 fold change,[2],inactive: 0.039
FOS (UniProt P01100),log2 fold change,[3],inactive: -0.001
FHL1 isoform 4 (UniProt Q13642),log2 fold change,[3],inactive: 0.246
FBXO11 isoform 5 (UniProt Q86XK2),log2 fold change,[4],inactive: -0.291
same,log2 fold change,[5],inactive: -0.156
same,log2 fold change,[2],inactive: 0.042
same,log2 fold change,[3],inactive: 0.021
FLYWCH1 isoform 3 (UniProt Q4VC44),log2 fold change,[2],inactive: -0.058
FILIP1L (UniProt Q4L180),log2 fold change,[2],inactive: -0.358
FARP2 (UniProt O94887),log2 fold change,[4],inactive: -0.229
same,log2 fold change,[5],inactive: 0.062
same,log2 fold change,[2],inactive: -0.004
same,log2 fold change,[3],inactive: -0.057
FBXW11 (UniProt Q9UKB1),log2 fold change,[4],inactive: 0.12
same,log2 fold change,[5],inactive: -0.077
same,log2 fold change,[2],inactive: 0.052
same,log2 fold change,[3],inactive: -0.005
FLII isoform 2 (UniProt Q13045),log2 fold change,[1],inactive: 0.052
FEM1C (UniProt Q96JP0),log2 fold change,[2],inactive: -0.021
FIZ1 (UniProt Q96SL8),log2 fold change,[4],inactive: 0.014
same,log2 fold change,[5],inactive: 0.113
same,log2 fold change,[3],inactive: -0.239
FANCL isoform 2 (UniProt Q9NW38),log2 fold change,[4],inactive: 0.014
same,log2 fold change,[5],inactive: 0.026
same,log2 fold change,[2],inactive: 0.06
same,log2 fold change,[3],inactive: 0.028
FBH1 isoform 2 (UniProt Q8NFZ0),log2 fold change,[4],inactive: -0.052
same,log2 fold change,[5],inactive: 0.05
same,log2 fold change,[3],inactive: 0.083

# Exported as tab-separated lines: entries from further up.
target	measurement	setting	value
FAXDC2 (UniProt Q96IV6)	log2 fold change	[2]	inactive: -0.055
FBXO11 isoform 5 (UniProt Q86XK2)	log2 fold change	[4]	inactive: -0.291
